Data as given in article doi:10.1101/2021.05.18.444627 (bioRxiv, 2021).
Read-outs that look alike come from different tables or passages of the source. These are yes or no findings as the source states them, for the method shown. Some binding calls cover weakened binding; strength is not graded here.

Amino acid sequences for entries named in this document (tags omitted). A change or cut given only in a name is not applied to a line headed by its entry. Residues count along the entry.
UniProt P10215, 22-42: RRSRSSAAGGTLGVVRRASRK
UniProt P10215, whole entry: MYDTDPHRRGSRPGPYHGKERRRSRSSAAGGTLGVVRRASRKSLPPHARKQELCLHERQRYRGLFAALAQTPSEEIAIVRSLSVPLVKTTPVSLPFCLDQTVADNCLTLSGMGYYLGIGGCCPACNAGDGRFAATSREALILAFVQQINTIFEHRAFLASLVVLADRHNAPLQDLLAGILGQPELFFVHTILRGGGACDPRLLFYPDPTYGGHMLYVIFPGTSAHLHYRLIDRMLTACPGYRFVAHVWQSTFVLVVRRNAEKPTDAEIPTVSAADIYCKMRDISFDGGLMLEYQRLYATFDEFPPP
UniProt P10218, 174-194: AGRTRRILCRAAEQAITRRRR

Experiments:
[1] = target: UL31^(1-C51) peptide, spin-labelled (HSV-1 UL31 MPR residues 1-50 with a C-terminal cysteine) (HSV-1) (UniProt P10215); assay: DEER spectroscopy
[2] = target: UL34^(174-194) peptide, unlabelled (HSV-1) (UniProt P10218); assay: cross-linking
[3] = target: HSV-1 UL34 residues 1-220, the UL34 chain of NEC220 (HSV-1) (UniProt P10218); assay: tandem affinity co-purification
[4] = target: UL34^(174-194) peptide, spin-labelled at the native cysteine C182 (HSV-1) (UniProt P10218); assay: DEER spectroscopy
[5] = target: UL34^(174-194) peptide, unlabelled (HSV-1) (UniProt P10218); assay: cross-linking; remark: listed apart in the source
[6] = target: UL31^(41-50) peptide (UL31 mini-MPR) (HSV-1); assay: cross-linking
[7] = target: UL31^(41-50) peptide (UL31 mini-MPR) (HSV-1); assay: cross-linking; remark: listed apart in the source

Q: Which binding [1] does the source give for “UL31^(1-C51) peptide, spin-labelled (HSV-1 UL31 MPR residues 1-50 with a C-terminal cysteine) (from UniProt P10215 1-50)” here?
A: Its binding is “no binding (tested: 50 μM)”.

Q: Which binding [2] does the source give for “UL31^(22-42) peptide (middle of the UL31 MPR) (from UniProt P10215 22-42)” here?
A: The binding was “no binding (condition: without SUVs)”.

Q: “His6-SUMO-UL31 (HSV-1 strain F UL31, residues 1-306), the UL31 chain of NEC220 (from UniProt P10215 1-306)” was tested. Which binding [3] did it give?
A: Its binding is “binds”.

Q: “UL34^(174-194) peptide, spin-labelled at the native cysteine C182 (from UniProt P10218 174-194)” was tested. Which binding [4] did it give?
A: The binding was “no binding (tested: 50 μM)”.

Q: With “UL34^(174-194) peptide, unlabelled (from UniProt P10218 174-194)” as the molecule, how does the binding [5] read?
A: Its binding is “no binding (tested: 50 μM)”.

Q: And the binding [2]?
A: The binding was “no binding (tested: 50 μM)”.

Q: What does the source list for RKSLPPHARK (N-terminal acetyl; C-terminal amide) [UL31^(41-50) peptide (UL31 mini-MPR)]?
A: binding [6]: no binding (tested: 50 μM); binding [7]: no binding (tested: 50 μM); binding [2]: no binding (condition: without SUVs)
